These are yes or no findings as the source states them, for the method shown. Binding can be weak; no strength is given.
What was measured:
[1] = molecular target: T1, Pol2 catalytic domain (residues 1-1192), exonuclease-deficient (D290A/E292A) (yeast (S. cerevisiae)) (UniProt P21951); test: native gel or EMSA
T1 sequence: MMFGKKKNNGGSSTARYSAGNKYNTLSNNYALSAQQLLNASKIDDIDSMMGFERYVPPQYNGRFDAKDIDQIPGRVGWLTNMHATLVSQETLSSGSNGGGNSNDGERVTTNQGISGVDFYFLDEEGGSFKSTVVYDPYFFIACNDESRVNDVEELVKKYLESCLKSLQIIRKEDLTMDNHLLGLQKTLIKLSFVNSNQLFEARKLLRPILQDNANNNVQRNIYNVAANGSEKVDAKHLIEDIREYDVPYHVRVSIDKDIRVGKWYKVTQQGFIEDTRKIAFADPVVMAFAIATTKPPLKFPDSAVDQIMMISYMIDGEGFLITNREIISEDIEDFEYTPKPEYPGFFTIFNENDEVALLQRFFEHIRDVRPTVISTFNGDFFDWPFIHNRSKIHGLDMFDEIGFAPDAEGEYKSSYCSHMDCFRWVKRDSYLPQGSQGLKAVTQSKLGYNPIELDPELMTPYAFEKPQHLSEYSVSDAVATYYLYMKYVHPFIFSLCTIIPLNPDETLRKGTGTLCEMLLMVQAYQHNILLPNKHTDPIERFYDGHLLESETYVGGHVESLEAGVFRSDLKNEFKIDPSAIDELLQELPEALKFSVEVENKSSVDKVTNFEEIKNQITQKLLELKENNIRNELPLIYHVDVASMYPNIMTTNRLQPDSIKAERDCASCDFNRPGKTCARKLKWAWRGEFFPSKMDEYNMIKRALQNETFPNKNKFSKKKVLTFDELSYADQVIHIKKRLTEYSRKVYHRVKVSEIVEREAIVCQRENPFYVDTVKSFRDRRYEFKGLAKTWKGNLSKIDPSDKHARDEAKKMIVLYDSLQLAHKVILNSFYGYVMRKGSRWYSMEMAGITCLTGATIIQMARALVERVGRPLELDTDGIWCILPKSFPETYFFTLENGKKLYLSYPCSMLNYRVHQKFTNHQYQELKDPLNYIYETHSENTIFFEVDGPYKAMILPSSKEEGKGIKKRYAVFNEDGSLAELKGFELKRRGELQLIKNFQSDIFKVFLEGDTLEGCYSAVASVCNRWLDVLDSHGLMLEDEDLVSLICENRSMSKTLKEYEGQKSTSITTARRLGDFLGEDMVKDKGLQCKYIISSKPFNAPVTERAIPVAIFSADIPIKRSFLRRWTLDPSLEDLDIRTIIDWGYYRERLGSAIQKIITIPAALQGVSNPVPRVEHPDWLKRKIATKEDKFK

[2] = molecular target: T1, Pol2 catalytic domain (residues 1-1192), exonuclease-deficient (D290A/E292A) (yeast (S. cerevisiae)); test: cryo-EM structure

| binding [1] | binding [2] | Substance |
| --- | --- | --- |
| binds |  | Ctf18-1-8 with Ctf18 V730R/R731A/K732A (yeast (S. cerevisiae)) (complex) |
| binds |  | Ctf18-1-8 with Dcc1 R367A/R376A/R380A (yeast (S. cerevisiae)) (complex) |
|  | binds | Ctf18 C-terminus (the Ctf18 chain of Ctf18-1-8) (yeast (S. cerevisiae)) (domain or fragment) |
|  | binds | Dcc1 (the Dcc1 chain of Ctf18-1-8) (yeast (S. cerevisiae)) |

Source: paper doi:10.1101/808840
